Test results published in patent US20260256814A1, “COMBINATION FOR THE TREATMENT OF INFECTIONS CAUSED BY MYCOPLASMA GENITALIUM” (GLAXOSMITHKLINE INTELLECTUAL PROPERTY DEVELOPMENT LIMITED, priority 2019, published 2026).
At least one structure is not confirmed: it was looked up by name or label, or the drawing left a doubt.

Assays:
[1] = tested on: Mycoplasma genitalium; assay: Determination of minimum inhibitory concentration (MIC) by the Vero-cell culture method, growth by qPCR; format: cell-based; conditions: all 54 isolates
Procedure: A collection of 54 Mycoplasma genitalium isolates originating from 51 patients were tested. Thirty-one strains were macrolide-resistant, with azithromycin MICs of ≥16 μg/mL and mutations in 23S rRNA gene positions A2058 (n=17) or A2059 (n=14, E. coli numbering). Eighteen strains were moxifloxacin-resistant (MIC≥1 μg/ml); 17 had dual resistance and were resistant to both moxifloxacin and azithromycin.
Gepotidacin minimal inhibitory concentrations (MICs) were determined by the Vero-cell culture method for all 54 isolates and minimal bactericidal concentrations (MBCs) against 44 Mycoplasma genitalium strains. Gepotidacin, azithromycin, doxycycline, and moxifloxacin MICs were determined by inoculating 5000 genome equivalents (geq) as determined by quantitative PCR (qPCR) into a Vero-cell culture containing two-fold dilutions of test-antibiotic (Hamasuna et al., Antimicrob. Agents Chemother 49, 4993-4998 (2005)). After a three-week incubation period, cells and supernatant were harvested and growth of Mycoplasma genitalium was determined by qPCR. MIC was defined as the minimal concentration of the test-antibiotic causing a 99% inhibition of growth when compared to the mean of the control cultures grown without antibiotic.

[2] = tested on: Mycoplasma genitalium; conditions: treatment of urogenital infections by Mycoplasma genitalium; Manhart et al. 2015; cited from earlier work

Row | SMILES | MIC range [1] | cure rates [2]
1 | COc1c(N2C[C@@H]3CCCN[C@@H]3C2)c(F)cc2c(=O)c(C(=O)O)cn(C3CC3)c12 [Moxifloxacin, reference compound] | 0.03->16 | 
2 | C[C@H]1c2cccc(O)c2C(=O)C2=C(O)[C@]3(O)C(=O)C(C(N)=O)=C(O)[C@@H](N(C)C)[C@@H]3[C@@H](O)[C@@H]21 [Doxycycline, reference compound] |  | less than 50%
